Results: US7025971
Results are given in words; binding and its absence hold for the method and conditions named. Some entries that bind do so weakly or less than the wild type. For part of these data: Where a sequence is shown, tags or fusion partners need not be part of it.

Amino acid sequences for entries named in this document (tags omitted). Residues count along the entry.
UniProt P15319, residues 22-239: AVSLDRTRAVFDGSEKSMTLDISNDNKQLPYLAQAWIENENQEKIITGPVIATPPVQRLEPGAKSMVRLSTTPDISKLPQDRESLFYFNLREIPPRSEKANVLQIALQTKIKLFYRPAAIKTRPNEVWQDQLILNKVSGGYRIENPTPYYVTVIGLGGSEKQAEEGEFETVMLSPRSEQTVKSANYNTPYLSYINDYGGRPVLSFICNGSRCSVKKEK

Key:
[1] = molecular target: T1, PapG (E. coli) (UniProt P13720); test: protease protection
T1 sequence: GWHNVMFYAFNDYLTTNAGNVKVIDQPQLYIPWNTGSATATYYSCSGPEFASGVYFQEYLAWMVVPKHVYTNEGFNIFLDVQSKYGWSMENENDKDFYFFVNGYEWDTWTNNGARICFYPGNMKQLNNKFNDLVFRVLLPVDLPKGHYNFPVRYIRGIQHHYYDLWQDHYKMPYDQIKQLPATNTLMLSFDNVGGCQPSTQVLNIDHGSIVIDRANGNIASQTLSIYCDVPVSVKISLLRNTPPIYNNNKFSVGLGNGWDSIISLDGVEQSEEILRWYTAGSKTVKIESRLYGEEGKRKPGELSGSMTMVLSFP

[2] = molecular target: T2, MBP/G1′-19′ (E. coli); test: co-expression, amylose affinity chromatography, anti-PapD western blot
T2 sequence: GKRKPGELSGSMTMVLSFP

[3] = molecular target: T2, MBP/G1′-19′ (E. coli); test: ELISA, fusion protein coated on wells, 50 pmol PapD, anti-PapD antiserum

Measured: binding

PapD (wild type) (from UniProt P15319 22-239)
binds: all assays above
